Test results published in PubChem BioAssay AID624297 (National Center for Advancing Translational Sciences (NCATS), 2012).
In all, about 340,000 compounds went through this assay and about 6,200 (1.8%) were called active. Inconclusive results, whose numbers are uncertain, are shown with a selection of clear calls. Calls come from the whole dose curve; as a rule, active = well fitted activation curve with a large enough effect; inconclusive = small, poorly fitted or top-dose-only effect; inactive = no such curve, though single readings can be large or run the other way. Potencies beside an inconclusive call are fits to weak or partial responses and may not hold up.
Potency is the fitted concentration of half-maximal effect.

Test: A quantitative high throughput screen for small molecules that induce DNA re-replication in SW480 colon adenocarcinoma cells. For re-replication activation: % of control where 0% means no effect. Note: nearly all actives have a fitted effect of over 55% in size.
Conditions: Hoechst DNA content imaging, 48 h; re-replication activation: at 46.1 µM (top of the series) unless noted
Procedure, shortened: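 Per well, 250 cells were exposed to pinned compound for 48 hr. Nuclear DNA was visualised with Hoechst (40 min, 37 C) and total object intensity recorded by fluorescence scanning.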
For CCOc1cc(NC(=S)NCC2CCCO2)c(OCC)cc1NC(=O)C1CC1 (configuration not stated), the Potency was inconclusive: 0.651 µM [activator, partial curve].
With CCOc1cc(/C=N/NC(=O)C(=O)Nc2cc(Cl)ccc2C)ccc1O the Potency was inconclusive: 29.1 µM [activator, single point].
With CC(C)c1ccc(NC(=O)C(c2ccccc2)N2CCC3(CC2)OCCO3)cc1 (configuration not stated) the Potency was inconclusive: 20.6 µM [activator, partial curve, poor fit].
In the case of CN(C)CCCNC(=S)N(Cc1cccs1)Cc1cc2cc3c(cc2[nH]c1=O)OCCO3, the Potency is reported as inconclusive: 29.1 µM [activator, single point].
In the case of COc1ccc(-c2cccc([C@H]3[C@@H]4C=CC[C@@H](C)[C@@H]4C(=O)N3Cc3ccccc3)c2)cc1, the Potency is reported as inconclusive: 0.58 µM [activator, full curve, poor fit].
For Cc1cccc(C(=O)N2CCc3cc(-c4csc(NC(=O)CN5CCCC5)n4)ccc32)c1, the Potency was inconclusive: 25.9 µM [activator, single point].
For COC(C[C@H](O)CC(=O)[C@@H](C)OCc1ccccc1)OC, the Potency was inconclusive: 2.31 µM [activator, partial curve, poor fit].
For CN1OC[C@@H]2CN(C(=O)CCc3ccccc3)[C@H](c3cccc(-c4ccc(C#N)cc4)c3)C[C@@H]21, the Potency was “inactive”.
For COc1ccc(NC(=O)c2ccc(COc3ccc(C)cc3)o2)cc1, the Potency was inconclusive: 23.1 µM [activator, partial curve, poor fit].
With O=[N+]([O-])c1ccc2c(c1)C(O)n1nc(-c3ccccc3)nc1S2 (configuration not stated) the Potency was inconclusive: 0.231 µM [activator, partial curve, poor fit].
With CN(C)S(=O)(=O)c1ccc(C(=O)Nc2ccccc2[N+](=O)[O-])cc1 the Potency was “inactive”.
For O=C(CN1C(=O)c2ccccc2C1=O)NC1CCCCC1, the Potency was “inactive”.
With C[C@@H]1CN([C@@H](C)CO)C(=O)c2cc(NC(=O)CCC(F)(F)F)ccc2O[C@H]1CN(C)Cc1ccc(Cl)c(Cl)c1 the Potency was “inactive”.
In the case of COc1ccc(OC)c(C2C3=C(COC3=O)Nc3cc4c(cc32)OCO4)c1 (configuration not stated), the Potency is reported as active: 0.146 µM.
In the case of Cc1nn(-c2ccccc2)c(Cl)c1/C=N/NC(=O)c1ccccc1NS(=O)(=O)c1cccs1, the Potency is reported as inconclusive: 18.4 µM [activator, partial curve, poor fit].
With CCOc1ccc2nc(N/C(N)=N/C(=S)Nc3cccc(OC)c3)nc(C)c2c1 the Potency was inconclusive: 11.6 µM [activator, partial curve].
In the case of Brc1ccc(-c2cn3c(n2)CCc2ccc4cccnc4c2-3)cc1, the Potency is reported as inconclusive: 29.1 µM [activator, single point].
For O=C(Cn1nc(CNc2ccc(Cl)cc2)[n+]2c1CCCCC2)c1ccccc1, the Potency was “inactive”.
For COc1ccc(C(=O)c2sc3nc(-c4ccccc4)ccc3c2N)cc1OC, the Potency was inconclusive: 5.62 µM [activator, full curve].
In the case of COc1ccccc1C1NC(=O)NC(C)=C1C(=O)OC1CCCCC1 (configuration not stated), the Potency is reported as “inactive”.
For Oc1ccccc1CN1CCN(C(O)(c2ccccc2)c2ccccc2)CC1, the Potency was “inactive”.
For O=C1C(=O)N(C/C=C/c2ccccc2)c2ccccc21, the Potency was inconclusive: 29.1 µM [activator, single point].
In the case of COc1ccc(NC(=O)COC(=O)CC2CC3CCC2C3)c([N+](=O)[O-])c1 (configuration not stated), the Potency is reported as “inactive”.
In the case of COc1ccc(C)c(Cn2c(-c3nonc3N)nc3ccccc32)c1, the Potency is reported as active: 5.17 µM.
For COc1ccc(-n2c(COc3ccc(C)cc3)nnc2SCC(=O)O)cc1, the Potency was inconclusive: 0.259 µM [activator, single point].
With CC(C)(C)c1cc(C(=O)Nc2cccc3ccccc23)ccn1 the Potency was “inactive”.
In the case of O=S(=O)(Nc1ccccc1N1CCOCC1)c1ccc(Cl)cc1, the Potency is reported as inconclusive: 32.6 µM [activator, single point].
In the case of O=C(c1ccc(S(=O)(=O)N2CCc3ccccc3C2)cc1)N1CCCCC1, the Potency is reported as inconclusive: 0.461 µM [activator, full curve, poor fit].
For NC(=O)COC(=O)c1ccc(NS(=O)(=O)c2ccc3c(c2)OCCO3)cc1, the Potency was inconclusive: 1.16 µM [activator, partial curve, poor fit].
In the case of O=C(OCc1cccc(C(F)(F)F)c1)c1cc(S(=O)(=O)N2CCOCC2)ccc1F, the Potency is reported as inconclusive: 4.11 µM [activator, full curve, poor fit].
In the case of COc1ccccc1NC(=O)Nc1ccc(Cl)c(S(=O)(=O)Nc2ccccc2OC)c1, the Potency is reported as “inactive”.
With COc1ccc(Br)cc1C(=O)Nc1ccc(N2CCCC2)cc1 the Potency was inconclusive: 18.4 µM [activator, single point].
For C/C(=N/N=C(/C)c1cccs1)c1cccs1, the Potency was inconclusive: 29.1 µM [activator, single point].
With CC(C)(Sc1ccc(CCN(CCCCC2CCCCC2)C(=O)NC2CCCCC2)cc1)C(=O)O the Potency was “inactive”.
With CCC(C)(C)C1CCc2c(sc(NC(=O)c3cccs3)c2C(N)=O)C1 (configuration not stated) the Potency was inconclusive: 3.16 µM [activator, single point].
With O=C(CC1CCCCC1)NCc1ccccc1Cl the Potency was “inactive”.
For COc1ccccc1NC(=S)N1CCC(c2nc3cc(C)c(C)cc3[nH]2)CC1, the Potency was “inactive”.
For CCOC(=O)c1c(NC(C)=O)sc2c1CCN(Cc1ccccc1)C2, the Potency was “inactive”.
With S=c1[nH]nc(-c2n[nH]c3c2CCC3)n1/N=C/C=C/c1ccccc1 the Potency was inconclusive: 6.51 µM [activator, single point].
With COc1ccc(N(C)S(=O)(=O)c2cccc(C(=O)Nc3ccc(N4CCOCC4)cc3)c2)cc1 the Potency was inconclusive: 18.4 µM [activator, single point].
For Cc1noc(C)c1COc1cccc(C(=O)OCC(=O)N2CC(=O)Nc3ccccc32)c1, the Potency was active: 9.2 µM.
For COc1ccc(-n2nc(C#N)c(Cl)cc2=O)cc1, the Potency was inconclusive: 3.26 µM [activator, full curve, poor fit].
For O=C(N1CCN(c2ccccc2F)CC1)C1(c2cccs2)CCOCC1, the Potency was “inactive”.
In the case of CS(=O)(=O)Nc1ccccc1C(=O)NCCSc1ccc(Cl)cc1, the Potency is reported as “inactive”.
With O=C1Cc2ccccc2Sc2cc(OCCCN3CCCCC3)ccc21 the Potency was active: 23.1 µM.
With COCCCNCCOc1ccccc1-c1ccccc1 the Potency was “inactive”.
For CCOC(=O)CSC1=C(C#N)C(c2ccc(C)cc2)C2=C(CCCC2=O)N1 (configuration not stated), the Potency was “inactive”.
For CCOc1ccc(C(=O)NNC(=O)CCNC(=O)c2ccco2)cc1OC, the Potency was inconclusive: 23.1 µM [activator, single point].
In the case of O=C(N/N=C/c1ccncc1)NC12CC3CC(CC(C3)C1)C2, the Potency is reported as “inactive”.
In the case of Cc1ccc(NS(=O)(=O)c2cc(NC(=O)c3ccc4c(c3)NC(=O)CS4)ccc2C)c(C)c1, the Potency is reported as “inactive”.
With Cc1csc2nc(CSc3ccc(Cl)cc3)cn12 the Potency was “inactive”.
In the case of O=C(Cn1ncc(Cl)c(Cl)c1=O)c1ccc2c(c1)OCCO2, the Potency is reported as inconclusive: 20.6 µM [activator, single point].
For Cc1cccc(OCCN2CSC(=S)N(C)C2)c1, the Potency was inconclusive: 10.3 µM [activator, partial curve, poor fit].
For CC1CCCCN1S(=O)(=O)c1ccc(NC(=O)c2cccc(-n3cnnn3)c2)cc1 (configuration not stated), the Potency was “inactive”.
With CC1=C(/C=C/C(C)=C/C=C/C(C)=C\C(=O)O)C(C)(C)CCC1 the Potency was inconclusive: 7.94 µM [activator, single point].
With CC(=O)N1c2ccc(S(=O)(=O)N3CCC(C(=O)Nc4cccc(C(F)(F)F)c4)CC3)cc2CC1C (configuration not stated) the Potency was inconclusive: 29.1 µM [activator, single point].
In the case of Cc1nn(-c2ccccc2)c(C)c1C(=O)OCC(=O)N(C)C1CCS(=O)(=O)C1 (configuration not stated), the Potency is reported as inconclusive: 0.146 µM [activator, full curve, poor fit].
In the case of CCOC(=O)C1CCCN(C(=O)c2cc3c(-c4cccc(OC)c4)nn(C)c3s2)C1 (configuration not stated), the Potency is reported as inconclusive: 29.1 µM [activator, single point].
In the case of COCCNC(=O)/C(C#N)=C/c1c(N2CCN(c3cccc(Cl)c3)CC2)nc2c(C)cccn2c1=O, the Potency is reported as inconclusive: 1.16 µM [activator, full curve, poor fit].
For COC(=O)CSc1nc2ccc(NC(C)=O)cc2s1, the Potency was “inactive”.
For Cc1ccc(N2CCN(S(=O)(=O)c3cccs3)CC2C)cc1 (configuration not stated), the Potency was inconclusive: 20.6 µM [activator, single point].
For CC(=O)OCCNc1cc(SC(C)C)c2nonc2c1[N+](=O)[O-], the Potency was “inactive”.
In the case of CN(C)C(=S)NCc1ccccc1, the Potency is reported as inconclusive: 25.9 µM [activator, single point].
For O=C(CSc1nc(=O)n(CCCN2CCOCC2)c2c1CCCC2)Nc1cccc(Cl)c1, the Potency was “inactive”.
For COc1ccc(NC(=O)CSc2nc3ccccc3c(=O)n2CCCC(=O)NCC2CCCO2)c(OC)c1 (configuration not stated), the Potency was inconclusive: 0.517 µM [activator, full curve, poor fit].
In the case of CCOc1ccc(CC2NCCc3cc(OCC)c(OCC)cc32)cc1OCC (configuration not stated), the Potency is reported as inconclusive: 29.1 µM [activator, single point].
With COc1cc2c(cc1OC)C(c1cccs1)N(C(=O)c1cccnc1)CC2 (configuration not stated) the Potency was active: 5.17 µM.
In the case of Cc1cc(C)c(S(=O)(=O)c2ccccc2Cl)c(=O)[nH]1, the Potency is reported as “inactive”.
With Cc1ccc(N2CCN(C(=O)c3ccccc3Br)CC2)c(C)c1 the Potency was “inactive”.
For CCn1c(SCc2nc3ccccc3[nH]2)nnc1-c1ccccc1OC, the Potency was “inactive”.
With CCOc1ccccc1N1CCN(Cc2ccco2)CC1 the Potency was inconclusive: 0.0041 µM [activator, full curve, poor fit].
With COCCNc1nc(N2CCCCC2)c2cnn(C)c2n1 the re-replication activation was inconclusive: 15.4% [activator].
